Laboratory results taken from publication PMC3789979, “Recruitment of a Cytoplasmic Chaperone Relay by the A2A Adenosine Receptor” (The Journal of Biological Chemistry, 2013).

Protein sequences, listed by entry. Tags and fused reporters are not part of them. Residues count along the entry.
UniProt P27824, residues 21-592: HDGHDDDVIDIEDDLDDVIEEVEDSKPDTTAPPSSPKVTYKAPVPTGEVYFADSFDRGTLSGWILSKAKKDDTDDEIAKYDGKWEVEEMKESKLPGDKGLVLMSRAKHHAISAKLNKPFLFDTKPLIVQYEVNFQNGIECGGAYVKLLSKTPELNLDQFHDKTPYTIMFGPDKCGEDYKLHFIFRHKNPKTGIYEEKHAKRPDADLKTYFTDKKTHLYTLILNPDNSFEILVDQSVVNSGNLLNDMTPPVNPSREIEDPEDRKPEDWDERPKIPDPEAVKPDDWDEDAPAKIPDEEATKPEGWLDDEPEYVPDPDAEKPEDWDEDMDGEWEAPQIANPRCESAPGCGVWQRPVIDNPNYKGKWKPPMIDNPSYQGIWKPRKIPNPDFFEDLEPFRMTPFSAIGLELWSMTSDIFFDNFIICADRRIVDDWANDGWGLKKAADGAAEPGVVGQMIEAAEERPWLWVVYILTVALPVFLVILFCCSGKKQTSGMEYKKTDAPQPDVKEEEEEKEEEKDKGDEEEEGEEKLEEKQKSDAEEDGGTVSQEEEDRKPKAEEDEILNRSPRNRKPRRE

Tests used:
[1] = target: FSt2-N-A2A receptor (human) (UniProt P29274); experiment: affinity purification with mass spectrometry; tandem affinity purification of FSt2-N-A2A receptor from DDM extracts of HEK293 membranes: anti-FLAG-agarose, elution with FLAG peptide, Strep-Tactin-Sepharose; in-solution tryptic digest, nano-LC-MS/MS; control cells processed in parallel
[2] = target: G2S-N-A2A receptor (human) (UniProt P29274); experiment: affinity purification with mass spectrometry; tandem affinity purification of G2S-N-A2A receptor from DDM extracts of HEK293 membranes: IgG-agarose 2 h 4 °C, TEV protease elution, streptavidin beads 2 h 4 °C, elution with 2 mM biotin and 6 M urea; in-solution tryptic digest, nano-LC-MS/MS; control cells processed in parallel

Row | binding [1] | binding [2] | Molecule
1 | binds | binds | Calnexin precursor (major histocompatibility complex class I antigen- binding protein p88, p90, IP90) (from UniProt P27824 21-592)
2 | binds | binds | Heat-shock protein 90α (from UniProt P07900 1-732)
3 | binds | binds | Protein-disulfide isomerase A6 precursor (protein disulfide-isomerase P5) (protein, UniProt Q15084 20-440) LYSSSDDVIELTPSNFNREVIQSDSLWLVEFYAPWCGHCQRLTPEWKKAATALKDVVKVGAVDADKHHSLGGQYGVQGFPTIKIFGSNKNRPEDYQGGRTGEAIVDAALSALRQLVKDRLGGRSGGYSSGKQGRSDSSSKKDVIELTDDSFDKNVLDSEDVWMVEFYAPWCGHCKNLEPEWAAAASEVKEQTKGKVKLAAVDATVNQVLASRYGIRGFPTIKIFQKGESPVDYDGGRTRSDIVSRALDLFSDNAPPPELLEIINEDIAKRTCEEHQLCVVAVLPHILDTGAAGRNSYLEVLLKLADKYKKKMWGWLWTEAGAQSELETALGIGGFGYPAMAAINARKMKFALLKGSFSEQGINEFLRELSFGRGSTAPVGGGAFPTIVEREPWDGRDGELPVEDDIDLSDVELDDLGKDEL

The remaining lines, values behind:

Row | Molecule | binding [1] | binding [2]
4 | Calreticulin precursor (CRP55) (calregulin, ERp60, grp60) (from UniProt P27797 18-417) | binds | binds
5 | Endoplasmin precursor (94-kDa glucose-regulated protein; gp96 homolog, tumor rejection antigen 1) (from UniProt P14625 22-803) | binds | binds
6 | HSP90β (from UniProt P08238 1-724) | no binding | no binding
7 | Heat-shock 70-kDa protein 1A (HSP70.1) (from UniProt P0DMV8 1-641) | binds | binds

No constants are given. Whether binding was seen depends on the method and setting. Binding seen in cells or lysates may run through a third protein. Here binding means that the protein was enriched with, or labelled near, the bait; the list need not be complete. A no says only that the protein was not detected with the bait.
